In this assay the target is Flag‐HSP90ab1 (UniProt P11499). The experiment in a line: co-IP; HEK293T cells transfected with the indicated plasmids (Flag-HSP90ab1 or its KR mutants, His-SENP1, SUMO1); antibody on beads, lysate 2 h, Western blot. (In general: A western blot detects proteins with antibodies after separation by electrophoresis.)

The chains behind the UniProt entries cited, without tags or fusion partners.
UniProt P11499: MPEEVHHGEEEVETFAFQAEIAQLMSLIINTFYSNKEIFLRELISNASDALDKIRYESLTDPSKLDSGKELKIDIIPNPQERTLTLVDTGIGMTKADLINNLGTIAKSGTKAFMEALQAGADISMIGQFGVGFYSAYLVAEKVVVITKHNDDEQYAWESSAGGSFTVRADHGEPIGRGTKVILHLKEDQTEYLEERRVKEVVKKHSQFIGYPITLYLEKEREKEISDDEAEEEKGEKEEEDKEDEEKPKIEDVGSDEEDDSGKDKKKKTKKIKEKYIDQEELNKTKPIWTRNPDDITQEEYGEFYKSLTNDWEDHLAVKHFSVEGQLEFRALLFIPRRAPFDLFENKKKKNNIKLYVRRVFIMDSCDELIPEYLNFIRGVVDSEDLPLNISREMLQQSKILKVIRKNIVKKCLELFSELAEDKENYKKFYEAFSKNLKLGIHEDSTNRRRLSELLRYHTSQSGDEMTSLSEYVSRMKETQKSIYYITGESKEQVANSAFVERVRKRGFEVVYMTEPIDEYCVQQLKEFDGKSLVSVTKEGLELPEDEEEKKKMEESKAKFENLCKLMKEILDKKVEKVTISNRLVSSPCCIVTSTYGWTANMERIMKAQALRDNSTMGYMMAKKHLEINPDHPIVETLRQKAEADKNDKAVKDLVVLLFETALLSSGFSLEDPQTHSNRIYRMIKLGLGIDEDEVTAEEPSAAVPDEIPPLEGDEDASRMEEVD

Results are given in words; binding and its absence hold for the method and conditions named. Binding seen in cells or lysates may run through a third protein. Some binding calls cover weakened binding; strength is not graded here. Sequences can lack the tags named with a protein.

B1: His‐SENP1 (enzyme, UniProt P59110 1-640)
chain: MDDTADGVKMDAGEVTLVNHGSTFRTHRPPQSGFPEEQLLLSDQQSLPFRQGTLDGSFTCSTRSPAYRPDYHSDNPSSDSFLGSGDVRTFGQSANGQWRNSTPASGSAPQKPRNSRSLCLETRKTSSGLSNTFVGKSNHHCHMSAYEKSFPIKPAPSPSWSGSCRRSLLSPKKTQRRHFSTAEETVQEEEKEIYRQLLQMVTGKQFCVAKPTTHFPLRLSRCLSSNKNSLKDSLLRNGNSCASHVIGSDTSSSGSASILTAQEQLSHSAHSLSSGTPDVAFGSKDSDPHHHLAAPHQPNSLPASNTQSEGSDSVILLKVKESQTPASSPTFFQAELWIKELTSVYDSRARERLRRIEEQKALALQLQNQRLQEQEHAVLDSVELHLRVPLEKEIPVTAAQETRKKSHQLTDSEDEFPEITEEMEKEIKNVFRNGNQDEVLSEAFRLTITRKDIQTLNHLNWLNDEIINFYMNMLMERSKEKGFPSVHAFNTFFFTKLKTAGYQAVKRWTKKVDVFSVDILLVPIHLGVHWCLAVVDFRRKSITYYDSMGGINNEACRILLQYLKQESVDKKRKEFDTNGWQLFSKKSQEIPQQMNGSDCGMFACKYADCITKDRPINFTQQHMPYFRKRMVWEILHRKLL
In the case of B1, the binding entry is “binds”.

These data come from publication PMC11425837.
